{"source": "paper PMC12667522", "key": {"[1]": {"target": "T1, Tau tubulin kinase 2 (TTBK2), two-hybrid bait in pGBKT7 (mouse) (UniProt Q3UVR3)", "T1 sequence": "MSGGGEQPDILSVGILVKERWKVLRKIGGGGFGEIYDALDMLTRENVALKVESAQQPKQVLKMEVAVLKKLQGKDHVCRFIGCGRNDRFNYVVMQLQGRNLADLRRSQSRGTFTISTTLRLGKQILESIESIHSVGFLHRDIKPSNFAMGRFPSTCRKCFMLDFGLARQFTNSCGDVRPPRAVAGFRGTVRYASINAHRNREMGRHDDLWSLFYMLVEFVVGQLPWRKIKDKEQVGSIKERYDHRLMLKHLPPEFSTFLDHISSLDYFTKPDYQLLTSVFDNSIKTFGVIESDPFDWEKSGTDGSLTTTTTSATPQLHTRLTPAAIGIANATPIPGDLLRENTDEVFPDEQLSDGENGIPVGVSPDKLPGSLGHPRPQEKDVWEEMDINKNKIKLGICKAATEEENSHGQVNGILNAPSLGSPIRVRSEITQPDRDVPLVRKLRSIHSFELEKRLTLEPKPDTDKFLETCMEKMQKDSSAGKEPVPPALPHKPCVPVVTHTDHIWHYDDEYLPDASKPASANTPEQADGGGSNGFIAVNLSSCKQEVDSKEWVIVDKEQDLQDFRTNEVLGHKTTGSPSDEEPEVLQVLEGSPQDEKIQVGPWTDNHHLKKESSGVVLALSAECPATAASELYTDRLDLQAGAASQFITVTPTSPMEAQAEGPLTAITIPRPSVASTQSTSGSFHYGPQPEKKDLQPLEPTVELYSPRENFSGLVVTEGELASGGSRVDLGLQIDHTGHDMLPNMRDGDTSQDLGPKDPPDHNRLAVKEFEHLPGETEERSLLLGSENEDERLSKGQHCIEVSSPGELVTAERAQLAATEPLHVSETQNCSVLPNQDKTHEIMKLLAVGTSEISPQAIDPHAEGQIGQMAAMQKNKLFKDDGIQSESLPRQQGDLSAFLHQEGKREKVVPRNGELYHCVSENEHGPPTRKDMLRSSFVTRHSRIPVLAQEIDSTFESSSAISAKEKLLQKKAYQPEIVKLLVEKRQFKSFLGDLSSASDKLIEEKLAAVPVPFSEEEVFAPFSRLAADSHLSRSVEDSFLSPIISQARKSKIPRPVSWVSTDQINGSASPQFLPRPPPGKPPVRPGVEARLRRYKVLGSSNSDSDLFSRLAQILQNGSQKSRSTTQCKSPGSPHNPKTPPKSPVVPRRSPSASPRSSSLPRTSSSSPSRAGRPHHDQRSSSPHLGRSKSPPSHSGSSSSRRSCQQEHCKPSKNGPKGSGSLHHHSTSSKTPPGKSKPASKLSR", "test": "two-hybrid; TTBK2 in pGBKT7 as bait, candidates in pGADT7 as prey; co-transformed into yeast AH109; SD-Leu-Trp-His plates, 30 °C, 2-3 days, SD-Leu-Trp plates as controls"}, "HA-TTBK2 (mouse)": {"target": "T2, HA-TTBK2 (mouse) (UniProt Q3UVR3)", "T2 sequence": "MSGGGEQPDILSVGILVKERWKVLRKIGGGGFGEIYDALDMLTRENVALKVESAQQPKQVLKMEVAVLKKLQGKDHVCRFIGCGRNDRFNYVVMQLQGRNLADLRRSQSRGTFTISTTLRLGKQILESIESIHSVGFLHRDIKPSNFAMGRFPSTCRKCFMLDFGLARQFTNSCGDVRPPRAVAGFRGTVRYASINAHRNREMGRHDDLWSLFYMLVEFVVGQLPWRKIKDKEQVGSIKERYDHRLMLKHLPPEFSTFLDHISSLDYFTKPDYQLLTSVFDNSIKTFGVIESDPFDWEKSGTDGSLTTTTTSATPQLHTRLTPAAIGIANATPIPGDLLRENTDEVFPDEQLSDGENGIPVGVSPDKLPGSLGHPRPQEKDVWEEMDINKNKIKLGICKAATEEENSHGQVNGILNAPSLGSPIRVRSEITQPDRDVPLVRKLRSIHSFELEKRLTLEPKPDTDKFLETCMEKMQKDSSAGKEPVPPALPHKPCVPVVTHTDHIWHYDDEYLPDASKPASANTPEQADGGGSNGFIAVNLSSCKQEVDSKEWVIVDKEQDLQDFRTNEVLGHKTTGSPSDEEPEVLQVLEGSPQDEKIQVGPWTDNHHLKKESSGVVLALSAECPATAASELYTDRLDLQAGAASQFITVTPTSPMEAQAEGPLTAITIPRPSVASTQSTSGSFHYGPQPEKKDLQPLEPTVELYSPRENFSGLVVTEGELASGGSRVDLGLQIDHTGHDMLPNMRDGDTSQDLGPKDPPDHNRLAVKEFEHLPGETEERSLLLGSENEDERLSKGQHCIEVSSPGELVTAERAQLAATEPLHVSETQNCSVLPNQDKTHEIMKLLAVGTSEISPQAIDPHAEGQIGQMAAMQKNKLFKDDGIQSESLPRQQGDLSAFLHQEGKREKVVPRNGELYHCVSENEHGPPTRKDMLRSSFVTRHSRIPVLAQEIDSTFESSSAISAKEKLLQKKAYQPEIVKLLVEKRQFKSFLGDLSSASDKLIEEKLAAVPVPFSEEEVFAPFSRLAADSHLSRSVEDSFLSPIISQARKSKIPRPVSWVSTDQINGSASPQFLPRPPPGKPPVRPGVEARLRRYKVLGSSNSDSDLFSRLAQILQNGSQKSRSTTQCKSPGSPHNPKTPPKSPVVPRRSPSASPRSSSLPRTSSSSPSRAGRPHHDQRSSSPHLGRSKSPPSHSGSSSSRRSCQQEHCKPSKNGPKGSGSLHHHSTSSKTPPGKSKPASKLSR", "test": "co-IP; reciprocal co-IP of HA-TTBK2 and Flag-IFT88 in HEK293T cells"}}, "note": "No constants are given. Whether binding was seen depends on the method and setting. For some assays here: In cells and extracts the contact can be indirect. Some results given as binding are weak or reduced against the parent protein; the word gives no strength. For some assays here: Sequences can lack the tags named with a protein.", "data": [{"binder": "IFT88, two-hybrid prey in pGADT7 (protein, UniProt Q61371 1-824) MENVHLAPETDEDDLYSGFNDYNPAYDTEELENDTGFQQAVRTSHGRRPPVTAKIPSTAVSRPIATGYGSKTSLTSSMGRPMTGTIQDGVARPMTAVRAAGFSKAALRGSAFDPLGQSRGPAPPLEAKNEDSPEEKIRQLEKKVNELVEESCIANSCGDLKLALEKAKDAGRKERVLVRQREQVTSPENINLDLTYSVLFNLASQYSANEMYAEALNTYQVIVKNKMFSNAGRLKVNMGNIYLKQRNYSKAIKFYRMALDQIPSVHKEMRIKIMQNIGITFIKTGQYSDAINSFEHIMSMAPSLKAGFNLILSCFAIGDREKMKKAFQKLIAVPLEIDEDDKYISPSDDPHTNLLIEAIKNDHLRQMERERKAMAEKYIMTAAKLIAPVIEASFAVGYNWCVEVVKASQYVELANDLEINKAITYLRQKDFNQAVDTLKMFEKKDSRVKSAAATNLSFLYYLENEFAQASSYADLAVNSDRYNPSALTNKGNTVFANGDYEKAAEFYKEALRNDSSCTEALYNIGLTYKKLNRLDEALDSFLKLHAILRNSAQVLCQIANIYELMEDPNQAIEWLMQLISVVPTDSQALSKLGELYDSEGDKSQAFQYYYESYRYFPSNIEVIEWLGAYYIDTQFCEKAIQYFERASLIQPTQVKWQLMVASCFRRSGNYQKALDTYKEIHRKFPENVECLRFLVRLCTDIGLKEVQEYATKLKRLEKMKEMREQRIKSGRDSSGGSRSKREGSAGSDSGQNNSASSKSERLSAKLRALPGTDEPYESSGNKEIDASYVDPLGPQIERPKTAAKKRIDEDDFADEELGDDLLPE", "values": [{"measurement": "binding", "setting": "[1]", "value": "binds"}]}, {"binder": "Flag-IFT88 (protein, UniProt Q61371 1-824) MENVHLAPETDEDDLYSGFNDYNPAYDTEELENDTGFQQAVRTSHGRRPPVTAKIPSTAVSRPIATGYGSKTSLTSSMGRPMTGTIQDGVARPMTAVRAAGFSKAALRGSAFDPLGQSRGPAPPLEAKNEDSPEEKIRQLEKKVNELVEESCIANSCGDLKLALEKAKDAGRKERVLVRQREQVTSPENINLDLTYSVLFNLASQYSANEMYAEALNTYQVIVKNKMFSNAGRLKVNMGNIYLKQRNYSKAIKFYRMALDQIPSVHKEMRIKIMQNIGITFIKTGQYSDAINSFEHIMSMAPSLKAGFNLILSCFAIGDREKMKKAFQKLIAVPLEIDEDDKYISPSDDPHTNLLIEAIKNDHLRQMERERKAMAEKYIMTAAKLIAPVIEASFAVGYNWCVEVVKASQYVELANDLEINKAITYLRQKDFNQAVDTLKMFEKKDSRVKSAAATNLSFLYYLENEFAQASSYADLAVNSDRYNPSALTNKGNTVFANGDYEKAAEFYKEALRNDSSCTEALYNIGLTYKKLNRLDEALDSFLKLHAILRNSAQVLCQIANIYELMEDPNQAIEWLMQLISVVPTDSQALSKLGELYDSEGDKSQAFQYYYESYRYFPSNIEVIEWLGAYYIDTQFCEKAIQYFERASLIQPTQVKWQLMVASCFRRSGNYQKALDTYKEIHRKFPENVECLRFLVRLCTDIGLKEVQEYATKLKRLEKMKEMREQRIKSGRDSSGGSRSKREGSAGSDSGQNNSASSKSERLSAKLRALPGTDEPYESSGNKEIDASYVDPLGPQIERPKTAAKKRIDEDDFADEELGDDLLPE", "values": [{"measurement": "binding", "setting": "HA-TTBK2 (mouse)", "value": "binds"}]}]}
